Assay results from the supplement of paper PMC10849652.
Some of the results follow.

Protein sequences, listed by entry. Tags and fused reporters are not part of them. Lines headed by an entry give the natural chain unless they say otherwise; changes in a name come on top.
UniProt Q71RG4: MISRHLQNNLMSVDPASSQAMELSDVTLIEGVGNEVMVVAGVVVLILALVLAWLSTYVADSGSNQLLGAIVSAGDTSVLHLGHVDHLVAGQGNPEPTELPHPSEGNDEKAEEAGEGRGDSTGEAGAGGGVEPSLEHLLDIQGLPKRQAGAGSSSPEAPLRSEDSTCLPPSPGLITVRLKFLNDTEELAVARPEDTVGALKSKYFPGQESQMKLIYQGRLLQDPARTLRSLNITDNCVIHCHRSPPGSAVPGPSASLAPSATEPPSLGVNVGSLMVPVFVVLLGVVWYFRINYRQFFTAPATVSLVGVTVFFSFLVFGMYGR
UniProt P11387: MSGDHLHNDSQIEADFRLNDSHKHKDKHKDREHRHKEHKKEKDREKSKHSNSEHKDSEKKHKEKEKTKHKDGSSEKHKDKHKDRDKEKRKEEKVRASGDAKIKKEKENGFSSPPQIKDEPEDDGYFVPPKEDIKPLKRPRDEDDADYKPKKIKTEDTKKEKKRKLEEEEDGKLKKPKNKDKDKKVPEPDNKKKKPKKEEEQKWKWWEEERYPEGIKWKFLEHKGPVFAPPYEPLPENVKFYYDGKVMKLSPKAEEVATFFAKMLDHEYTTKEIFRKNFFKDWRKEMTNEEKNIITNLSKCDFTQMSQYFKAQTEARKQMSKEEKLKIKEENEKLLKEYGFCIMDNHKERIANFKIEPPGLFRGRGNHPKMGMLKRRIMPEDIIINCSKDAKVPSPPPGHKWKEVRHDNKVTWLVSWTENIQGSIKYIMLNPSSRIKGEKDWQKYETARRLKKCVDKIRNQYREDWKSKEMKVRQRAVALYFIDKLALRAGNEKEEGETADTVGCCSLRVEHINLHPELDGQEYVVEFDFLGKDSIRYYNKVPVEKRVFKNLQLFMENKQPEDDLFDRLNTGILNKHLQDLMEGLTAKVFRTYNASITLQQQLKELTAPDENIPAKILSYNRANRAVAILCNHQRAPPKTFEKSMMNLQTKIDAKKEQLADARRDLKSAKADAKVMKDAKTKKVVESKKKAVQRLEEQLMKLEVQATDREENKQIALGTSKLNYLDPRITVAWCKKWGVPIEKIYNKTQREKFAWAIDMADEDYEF
UniProt P67936, whole entry, looked up: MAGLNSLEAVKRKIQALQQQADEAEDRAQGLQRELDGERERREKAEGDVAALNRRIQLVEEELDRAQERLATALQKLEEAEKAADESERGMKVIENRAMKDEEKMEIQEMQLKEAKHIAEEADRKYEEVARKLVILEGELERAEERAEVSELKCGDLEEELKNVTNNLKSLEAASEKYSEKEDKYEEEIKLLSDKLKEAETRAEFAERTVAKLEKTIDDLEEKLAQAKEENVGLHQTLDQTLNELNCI
UniProt P82094: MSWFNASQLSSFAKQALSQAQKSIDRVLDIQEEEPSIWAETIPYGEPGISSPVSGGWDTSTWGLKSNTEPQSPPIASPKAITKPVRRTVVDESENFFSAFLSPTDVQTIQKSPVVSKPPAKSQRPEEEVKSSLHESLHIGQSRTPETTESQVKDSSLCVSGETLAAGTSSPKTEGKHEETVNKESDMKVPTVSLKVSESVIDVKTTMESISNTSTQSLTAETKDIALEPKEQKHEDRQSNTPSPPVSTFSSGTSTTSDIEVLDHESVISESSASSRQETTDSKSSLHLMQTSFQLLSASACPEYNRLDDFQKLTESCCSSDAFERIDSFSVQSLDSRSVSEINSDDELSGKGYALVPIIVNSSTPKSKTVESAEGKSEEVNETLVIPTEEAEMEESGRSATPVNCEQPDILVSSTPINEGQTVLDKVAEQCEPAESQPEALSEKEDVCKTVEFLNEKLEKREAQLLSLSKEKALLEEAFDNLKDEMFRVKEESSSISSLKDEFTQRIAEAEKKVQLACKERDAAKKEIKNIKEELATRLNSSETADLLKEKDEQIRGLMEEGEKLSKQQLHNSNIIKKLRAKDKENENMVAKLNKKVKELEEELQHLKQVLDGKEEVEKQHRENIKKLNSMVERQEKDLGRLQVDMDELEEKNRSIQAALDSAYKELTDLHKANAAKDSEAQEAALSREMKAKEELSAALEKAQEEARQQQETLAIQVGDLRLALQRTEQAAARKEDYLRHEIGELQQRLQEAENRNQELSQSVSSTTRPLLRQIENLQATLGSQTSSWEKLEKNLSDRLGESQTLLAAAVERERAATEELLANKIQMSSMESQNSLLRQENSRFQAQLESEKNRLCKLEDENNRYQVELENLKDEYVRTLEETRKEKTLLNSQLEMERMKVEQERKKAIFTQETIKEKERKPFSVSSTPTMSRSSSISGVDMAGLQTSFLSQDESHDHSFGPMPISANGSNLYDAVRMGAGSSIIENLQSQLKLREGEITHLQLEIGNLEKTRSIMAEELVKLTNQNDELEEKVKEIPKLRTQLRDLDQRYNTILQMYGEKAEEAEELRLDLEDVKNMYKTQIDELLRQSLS
UniProt Q9NVH6: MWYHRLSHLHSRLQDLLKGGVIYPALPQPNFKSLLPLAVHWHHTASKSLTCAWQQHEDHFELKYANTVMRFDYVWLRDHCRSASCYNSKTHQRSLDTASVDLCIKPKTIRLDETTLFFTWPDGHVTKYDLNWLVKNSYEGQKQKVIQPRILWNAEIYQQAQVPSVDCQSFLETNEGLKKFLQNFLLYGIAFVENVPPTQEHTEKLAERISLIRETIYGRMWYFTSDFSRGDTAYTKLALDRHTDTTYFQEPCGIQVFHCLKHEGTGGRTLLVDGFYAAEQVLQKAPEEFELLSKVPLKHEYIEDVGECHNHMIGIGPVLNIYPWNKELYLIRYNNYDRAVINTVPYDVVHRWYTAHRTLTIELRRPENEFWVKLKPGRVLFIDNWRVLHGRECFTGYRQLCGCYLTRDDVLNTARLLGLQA
UniProt Q9BTV4: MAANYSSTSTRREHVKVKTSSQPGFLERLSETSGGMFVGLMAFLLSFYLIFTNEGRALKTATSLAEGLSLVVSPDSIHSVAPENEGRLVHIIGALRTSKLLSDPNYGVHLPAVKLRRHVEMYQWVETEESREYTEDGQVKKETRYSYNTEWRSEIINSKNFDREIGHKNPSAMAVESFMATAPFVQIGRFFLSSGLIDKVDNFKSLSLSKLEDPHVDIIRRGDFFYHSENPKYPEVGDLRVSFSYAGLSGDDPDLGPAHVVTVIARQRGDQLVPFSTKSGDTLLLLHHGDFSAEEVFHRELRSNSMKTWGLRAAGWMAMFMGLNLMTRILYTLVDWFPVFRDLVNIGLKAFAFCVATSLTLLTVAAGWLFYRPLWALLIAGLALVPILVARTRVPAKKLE
UniProt P28289: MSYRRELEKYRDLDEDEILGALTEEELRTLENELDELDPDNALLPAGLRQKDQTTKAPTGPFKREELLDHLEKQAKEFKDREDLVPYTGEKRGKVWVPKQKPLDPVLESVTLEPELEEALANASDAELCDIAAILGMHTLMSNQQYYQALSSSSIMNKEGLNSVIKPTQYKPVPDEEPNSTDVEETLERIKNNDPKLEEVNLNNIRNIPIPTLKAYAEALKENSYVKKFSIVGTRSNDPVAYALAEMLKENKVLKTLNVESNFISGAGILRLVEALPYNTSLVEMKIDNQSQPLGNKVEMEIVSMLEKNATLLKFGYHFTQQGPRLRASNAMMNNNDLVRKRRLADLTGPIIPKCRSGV
UniProt P62995: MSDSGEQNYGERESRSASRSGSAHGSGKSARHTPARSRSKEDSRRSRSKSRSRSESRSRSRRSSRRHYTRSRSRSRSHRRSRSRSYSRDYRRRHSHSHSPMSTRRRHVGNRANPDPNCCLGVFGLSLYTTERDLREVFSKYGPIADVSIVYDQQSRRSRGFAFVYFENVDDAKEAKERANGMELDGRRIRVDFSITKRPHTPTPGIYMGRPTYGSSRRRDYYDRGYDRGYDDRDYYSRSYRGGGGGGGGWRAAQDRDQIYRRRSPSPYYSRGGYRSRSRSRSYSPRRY
UniProt Q16890: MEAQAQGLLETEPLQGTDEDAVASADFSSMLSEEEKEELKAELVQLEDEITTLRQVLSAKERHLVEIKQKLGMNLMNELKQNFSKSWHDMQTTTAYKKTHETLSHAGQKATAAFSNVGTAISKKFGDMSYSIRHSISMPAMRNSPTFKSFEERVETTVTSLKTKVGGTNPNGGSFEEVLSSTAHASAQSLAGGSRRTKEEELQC
UniProt Q9Y320, whole entry, looked up: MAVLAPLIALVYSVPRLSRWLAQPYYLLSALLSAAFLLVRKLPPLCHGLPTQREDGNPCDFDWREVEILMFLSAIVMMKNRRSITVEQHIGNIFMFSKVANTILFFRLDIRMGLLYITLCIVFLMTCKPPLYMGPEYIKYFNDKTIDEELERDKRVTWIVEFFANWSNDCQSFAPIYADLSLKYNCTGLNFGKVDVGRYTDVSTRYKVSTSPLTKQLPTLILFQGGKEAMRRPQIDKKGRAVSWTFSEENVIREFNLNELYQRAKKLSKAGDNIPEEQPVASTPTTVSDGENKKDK
UniProt O95379: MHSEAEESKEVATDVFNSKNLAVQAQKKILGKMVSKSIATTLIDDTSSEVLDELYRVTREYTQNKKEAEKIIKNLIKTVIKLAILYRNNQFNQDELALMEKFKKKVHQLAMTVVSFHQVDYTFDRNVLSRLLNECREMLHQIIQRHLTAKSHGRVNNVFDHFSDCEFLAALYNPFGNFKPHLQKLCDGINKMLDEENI
UniProt Q9NXH8: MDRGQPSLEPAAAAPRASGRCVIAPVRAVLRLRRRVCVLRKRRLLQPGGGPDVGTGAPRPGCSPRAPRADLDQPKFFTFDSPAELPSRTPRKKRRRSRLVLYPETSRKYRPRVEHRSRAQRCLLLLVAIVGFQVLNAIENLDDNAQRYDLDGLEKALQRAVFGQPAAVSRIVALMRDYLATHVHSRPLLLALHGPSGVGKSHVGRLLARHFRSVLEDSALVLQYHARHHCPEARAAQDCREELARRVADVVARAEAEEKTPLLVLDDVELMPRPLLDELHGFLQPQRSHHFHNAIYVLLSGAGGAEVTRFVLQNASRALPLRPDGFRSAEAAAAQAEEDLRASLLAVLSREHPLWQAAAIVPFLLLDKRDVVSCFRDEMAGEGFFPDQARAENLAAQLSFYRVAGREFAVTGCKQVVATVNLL
UniProt Q0P6H9: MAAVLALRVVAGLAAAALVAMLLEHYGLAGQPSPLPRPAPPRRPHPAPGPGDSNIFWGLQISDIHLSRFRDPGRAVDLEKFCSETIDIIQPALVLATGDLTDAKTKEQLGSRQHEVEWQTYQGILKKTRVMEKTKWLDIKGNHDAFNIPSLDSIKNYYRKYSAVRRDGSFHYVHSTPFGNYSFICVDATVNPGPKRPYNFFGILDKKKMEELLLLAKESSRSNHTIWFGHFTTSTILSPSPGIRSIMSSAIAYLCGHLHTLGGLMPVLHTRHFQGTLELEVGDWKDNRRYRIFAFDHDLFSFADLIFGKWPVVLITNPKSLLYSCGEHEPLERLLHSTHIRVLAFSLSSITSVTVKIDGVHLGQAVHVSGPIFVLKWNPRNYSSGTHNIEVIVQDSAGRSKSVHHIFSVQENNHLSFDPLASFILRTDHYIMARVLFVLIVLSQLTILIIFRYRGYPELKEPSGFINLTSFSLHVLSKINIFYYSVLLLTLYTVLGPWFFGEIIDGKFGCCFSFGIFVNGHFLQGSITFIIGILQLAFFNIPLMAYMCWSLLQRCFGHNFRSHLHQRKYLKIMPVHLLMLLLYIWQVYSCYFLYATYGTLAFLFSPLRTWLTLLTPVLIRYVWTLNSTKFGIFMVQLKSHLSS
UniProt O14656: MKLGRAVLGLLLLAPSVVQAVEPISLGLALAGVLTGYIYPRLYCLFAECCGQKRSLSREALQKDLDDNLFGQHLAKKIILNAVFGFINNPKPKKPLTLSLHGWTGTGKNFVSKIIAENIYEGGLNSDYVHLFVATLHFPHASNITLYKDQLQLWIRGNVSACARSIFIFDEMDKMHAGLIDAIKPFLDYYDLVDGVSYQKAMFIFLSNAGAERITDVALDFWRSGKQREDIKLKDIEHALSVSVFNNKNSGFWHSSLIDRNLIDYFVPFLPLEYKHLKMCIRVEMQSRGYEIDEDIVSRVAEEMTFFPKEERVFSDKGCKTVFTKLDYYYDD

Columns and labels:
Assay in all cases: log2 fold change, soluble protein after heating vs DMSO (PISA); higher = thermal stabilisation; K562 lysate, 10 uM; active = over 0.2 and 3.5 SD of the protein, either way, in both replicates (recomputed)
[1] = compound: CS(=O)(=O)CCNCc1ccc(-c2ccc3ncnc(Nc4ccc(OCc5cccc(F)c5)c(Cl)c4)c3c2)o1 [lapatinib]
Procedure, shortened: (§1)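 Log-two fold change in thermal stability relative to solvent controls is reported from duplicates. For each sample, crude K562 extract from dounce-homogenised pellets in PBS pH 7.4 with 1 mM MgCl2, at 1 mg/mL protein, was treated with 10 μM compound for 30 min. Aliquots heated for 3 min across 48°C-58°C were pooled, brought to 0.5% NP-40 at 4°C and cleared at 21,000xg for 90 min. The supernatant was quantified by TMTpro 16plex LC-MS/MS with channel sums equalised.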

[2] = compound: CS(=O)(=O)N1CCN(Cc2cc3nc(-c4cccc5[nH]ncc45)nc(N4CCOCC4)c3s2)CC1 [pictilisib]
Procedure, shortened: as §1

[3] = compound: C[C@@H](Oc1cc(-c2cnn(C3CCNCC3)c2)cnc1N)c1c(Cl)ccc(F)c1Cl [crizotinib]
Procedure, shortened: as §1

[4] = compound: C[C@H](C1=CC=C(C=C1)C(=O)NC2=C3C=CNC3=NC=C2)N
Procedure, shortened: as §1

[5] = compound: C[C@H](Nc1ncnc2nc[nH]c12)c1cc2cccc(Cl)c2c(=O)n1-c1ccccc1 [duvelisib]
Procedure, shortened: as §1

[6] = compound: Cc1cc(Nc2cc(CN3CCOCC3)c3nc(C)c(Cc4ccc(Cl)cc4F)n3n2)n[nH]1 [gandotinib]
Procedure, shortened: as §1

[7] = compound: Cc1cc(Nc2cc(N3CCN(C)CC3)nc(Sc3ccc(NC(=O)C4CC4)cc3)n2)n[nH]1 [tozasertib]
Procedure, shortened: as §1

[8] = compound: Cc1ccc(-n2nc(C(C)(C)C)cc2NC(=O)Nc2ccc(OCCN3CCOCC3)c3ccccc23)cc1 [doramapimod]
Procedure, shortened: as §1

[9] = compound: Cc1ccc(NC(=O)c2ccc(CN3CC[C@H](N(C)C)C3)c(C(F)(F)F)c2)cc1Nc1nccc(-c2cncnc2)n1 [bafetinib]
Procedure, shortened: as §1

[10] = compound: Cc1cccc(CC(=O)N2CCc3c2ccc(-c2cn(C)c4ncnc(N)c24)c3F)n1
Procedure, shortened: as §1

[11] = compound: Cc1cn(-c2cc(NC(=O)c3ccc(C)c(Nc4nccc(-c5cccnc5)n4)c3)cc(C(F)(F)F)c2)cn1 [nilotinib]
Procedure, shortened: as §1

[12] = compound: Cc1nc(Nc2n[nH]c3c2CN(C(=O)N[C@H](CN(C)C)c2ccccc2)C3(C)C)c2sccc2n1
Procedure, shortened: as §1

[13] = compound: Cc1nc(Nc2ncc(C(=O)Nc3c(C)cccc3Cl)s2)cc(N2CCN(CCO)CC2)n1 [dasatinib]
Procedure, shortened: as §1

[14] = compound: Cc1ncc(-c2ccnc(Nc3ccc(S(C)(=O)=O)cc3)n2)n1C(C)C
Procedure, shortened: as §1

[15] = compound: Cn1cc(-c2ccc3c(c2)CCN3C(=O)Cc2cccc(C(F)(F)F)c2)c2c(N)ncnc21
Procedure, shortened: as §1

[16] = compound: Cn1cc(CNCC2CCN(c3ncc(C(=O)NO)cn3)CC2)c2ccccc21 [quisinostat]
Procedure, shortened: as §1

[17] = compound: Cn1cncc1[C@@](N)(c1ccc(Cl)cc1)c1ccc2c(c1)c(-c1cccc(Cl)c1)cc(=O)n2C [tipifarnib]
Procedure, shortened: as §1

[18] = compound: NC(=O)Nc1cc(-c2cccc(F)c2)sc1C(=O)N[C@H]1CCCNC1
Procedure, shortened: as §1

[19] = compound: NC(=O)c1cnc(N[C@@H]2CCCC[C@@H]2N)nc1Nc1cccc(-n2nccn2)c1
Procedure, shortened: as §1

[20] = compound: NC1(c2ccc(-c3nc4ccn5c(=O)[nH]nc5c4cc3-c3ccccc3)cc2)CCC1
Procedure, shortened: as §1

Measured: log2 fold change

TMUB2 (UniProt Q71RG4)
inactive: [1] 0.011 | [2] -0.007 | [3] -0.01 | [4] 0.072 | [5] 0.114 | [6] -0.021 | [7] -0.122 | [8] -0.085 | [9] -0.02 | [10] 0.021 | [11] 0.006 | [12] -0.048 | [13] 0.04 | [14] -0.024 | [15] -0.061 | [16] 0.003 | [17] 0.126 | [18] -0.113 | [19] -0.004 | [20] -0.048

TOP1 (UniProt P11387)
inactive: [1] -0.012 | [2] -0.021 | [3] -0.024 | [4] 0.003 | [5] 0.003 | [6] -0.099 | [7] 0.032 | [8] -0.028 | [9] -0.04 | [10] 0.017 | [11] -0.005 | [12] 0.01 | [13] 0.017 | [14] 0.008 | [15] 0.013 | [16] 0.01 | [17] 0.017 | [18] 0.029 | [19] -0.003 | [20] -0.014

TPM4 (UniProt P67936)
inactive: [1] -0.002 | [2] -0.043 | [3] 0.003 | [4] -0.001 | [5] -0.021 | [6] 0.039 | [7] -0.098 | [8] -0.029 | [9] -0.055 | [10] -0.018 | [11] 0.028 | [12] -0.068 | [13] 0.058 | [14] -0.028 | [15] -0.01 | [16] 0 | [17] -0.004 | [18] -0.054 | [19] 0.007 | [20] -0.029

TMF1 isoform 2 (UniProt P82094)
inactive: [1] 0.004 | [2] -0.018 | [3] 0.001 | [4] -0.047 | [5] 0.002 | [6] 0.079 | [7] 0.014 | [8] -0.002 | [9] -0.019 | [10] 0.036 | [11] -0.073 | [12] -0.008 | [13] 0.005 | [14] -0.035 | [15] -0.001 | [16] -0.008 | [17] -0.064 | [18] -0.038 | [19] -0.011 | [20] -0.044

TMLHE isoform 8 (UniProt Q9NVH6)
inactive: [1] -0.028 | [2] 0.044 | [3] -0.03 | [4] -0.098 | [5] -0.015 | [6] 0.018 | [7] 0 | [8] 0.031 | [9] 0.026 | [10] -0.039 | [11] 0.015 | [12] -0.066 | [13] 0.035 | [14] 0.004 | [15] -0.058 | [16] -0.098 | [17] -0.024 | [18] -0.017 | [19] -0.057 | [20] -0.001

TMEM43 (UniProt Q9BTV4)
inactive: [1] -0.04 | [2] 0.002 | [3] -0.043 | [4] -0.06 | [5] -0.009 | [6] 0.083 | [7] 0.028 | [8] 0.035 | [9] -0.039 | [10] 0.072 | [11] -0.002 | [12] -0.001 | [13] 0.037 | [14] 0.013 | [15] 0.002 | [16] -0.062 | [17] -0.059 | [18] -0.009 | [19] 0.009 | [20] -0.033

TMOD1 (UniProt P28289)
inactive: [1] 0 | [2] -0.032 | [3] -0.011 | [4] 0.039 | [5] -0.008 | [6] -0.059 | [7] 0.026 | [8] 0.019 | [9] -0.004 | [10] -0.029 | [11] -0.029 | [12] -0.032 | [13] 0.011 | [14] -0.02 | [15] 0.014 | [16] -0.007 | [17] -0.013 | [18] 0.031 | [19] 0.008 | [20] -0.015

TOPBP1 (UniProt Q92547)
inactive: [1] 0.095 | [2] -0.037 | [3] 0.023 | [4] 0.206 | [5] -0.03 | [6] -0.048 | [7] -0.066 | [8] 0.056 | [9] -0.076 | [10] -0.017 | [11] 0.013 | [12] -0.056 | [13] 0.003 | [14] 0.006 | [15] 0.02 | [16] -0.018 | [17] 0.049 | [18] -0.002 | [19] 0.039 | [20] -0.007

TRA2B (UniProt P62995)
inactive: [1] -0.013 | [2] 0.01 | [3] -0.098 | [4] 0.049 | [5] 0.209 | [6] -0.005 | [7] 0.006 | [8] 0.063 | [9] -0.049 | [10] -0.009 | [11] -0.04 | [12] -0.026 | [13] 0.027 | [14] 0.027 | [15] -0.052 | [16] -0.149 | [17] -0.024 | [18] 0.007 | [19] 0.012 | [20] -0.001

TPD52L1 (UniProt Q16890)
inactive: [1] 0.017 | [2] -0.048 | [3] 0.111 | [4] 0.022 | [5] -0.01 | [6] 0.184 | [7] -0.05 | [8] -0.006 | [9] 0.035 | [10] -0.13 | [11] 0.037 | [12] -0.031 | [13] 0.032 | [14] -0.019 | [15] -0.012 | [16] 0.097 | [17] 0.013 | [18] -0.038 | [19] -0.1 | [20] 0.057

Taken from the results shown (four entries):
TPM4 (UniProt P67936)
inactive: [1] -0.002 | [2] -0.043 | [3] 0.003 | [4] -0.001 | [5] -0.021 | [6] 0.039 | [7] -0.098 | [8] -0.029 | [9] -0.055 | [10] -0.018 | [11] 0.028 | [12] -0.068 | [13] 0.058 | [14] -0.028 | [15] -0.01 | [16] 0 | [17] -0.004 | [18] -0.054 | [19] 0.007 | [20] -0.029

TMF1 isoform 2 (UniProt P82094)
inactive: [1] 0.004 | [2] -0.018 | [3] 0.001 | [4] -0.047 | [5] 0.002 | [6] 0.079 | [7] 0.014 | [8] -0.002 | [9] -0.019 | [10] 0.036 | [11] -0.073 | [12] -0.008 | [13] 0.005 | [14] -0.035 | [15] -0.001 | [16] -0.008 | [17] -0.064 | [18] -0.038 | [19] -0.011 | [20] -0.044

TMLHE isoform 8 (UniProt Q9NVH6)
inactive: [1] -0.028 | [2] 0.044 | [3] -0.03 | [4] -0.098 | [5] -0.015 | [6] 0.018 | [7] 0 | [8] 0.031 | [9] 0.026 | [10] -0.039 | [11] 0.015 | [12] -0.066 | [13] 0.035 | [14] 0.004 | [15] -0.058 | [16] -0.098 | [17] -0.024 | [18] -0.017 | [19] -0.057 | [20] -0.001

TMEM43 (UniProt Q9BTV4)
inactive: [1] -0.04 | [2] 0.002 | [3] -0.043 | [4] -0.06 | [5] -0.009 | [6] 0.083 | [7] 0.028 | [8] 0.035 | [9] -0.039 | [10] 0.072 | [11] -0.002 | [12] -0.001 | [13] 0.037 | [14] 0.013 | [15] 0.002 | [16] -0.062 | [17] -0.059 | [18] -0.009 | [19] 0.009 | [20] -0.033

Following part.

TMX2 (UniProt Q9Y320)
inactive: [1] -0.002 | [2] -0.032 | [3] -0.031 | [4] -0.029 | [5] -0.028 | [6] 0.032 | [7] 0.068 | [8] 0.069 | [9] 0.01 | [10] -0.005 | [11] 0.005 | [12] 0.015 | [13] -0.041 | [14] -0.015 | [15] 0.026 | [16] 0.063 | [17] 0.001 | [18] -0.041 | [19] -0.045 | [20] -0.001

TNFAIP8 isoform 4 (UniProt O95379)
inactive: [1] -0.004 | [2] -0.018 | [3] 0.057 | [4] 0.009 | [5] 0.001 | [6] 0.026 | [7] 0.042 | [8] -0.088 | [9] -0.014 | [10] -0.011 | [11] -0.075 | [12] 0.033 | [13] 0.018 | [14] 0.021 | [15] 0.002 | [16] 0.032 | [17] 0.043 | [18] -0.032 | [19] 0.059 | [20] 0.006

TOR4A (UniProt Q9NXH8)
inactive: [1] -0.033 | [2] -0.067 | [3] -0.081 | [4] -0.042 | [5] 0.018 | [6] -0.027 | [7] -0.069 | [8] 0.036 | [9] -0.015 | [10] 0.046 | [11] -0.074 | [12] 0.022 | [13] -0.033 | [14] 0.005 | [15] 0.011 | [16] -0.061 | [17] -0.018 | [18] 0.039 | [19] 0.111 | [20] -0.001

TMEM62 (UniProt Q0P6H9)
inactive: [1] -0.033 | [2] -0.12 | [3] 0.032 | [4] -0.237 | [5] -0.08 | [6] -0.223 | [7] -0.011 | [8] -0.009 | [9] -0.155 | [10] 0.198 | [11] 0.101 | [12] -0.01 | [13] 0.035 | [14] -0.003 | [15] -0.063 | [16] 0.024 | [17] -0.05 | [18] 0.019 | [19] 0.121 | [20] -0.049

TPR (UniProt P12270)
inactive: [1] -0.008 | [2] 0.003 | [3] 0.028 | [4] 0.056 | [5] -0.004 | [6] -0.009 | [7] -0.012 | [8] -0.013 | [9] 0.005 | [10] -0.05 | [11] -0.009 | [12] 0.001 | [13] 0.019 | [14] 0.004 | [15] -0.004 | [16] 0.013 | [17] 0.011 | [18] -0.018 | [19] -0.007 | [20] 0.006

TOR1A (UniProt O14656)
inactive: [1] -0.01 | [2] -0.032 | [3] 0.011 | [4] 0.013 | [5] -0.011 | [6] 0.02 | [7] -0.007 | [8] -0.014 | [9] -0.029 | [10] 0.013 | [11] 0.034 | [12] -0.055 | [13] 0.017 | [14] -0.03 | [15] -0.01 | [16] 0.006 | [17] -0.026 | [18] 0.009 | [19] -0.007 | [20] 0.003
